Measurements published in article PMC6020293, “In Vitro Reconstitution of Functional Type III Protein Export and Insights into Flagellar Assembly” (mBio, 2018).
These are yes or no findings as the source states them, for the method shown. Some entries that bind do so weakly or less than the wild type.

Amino acid sequences for entries named in this document (tags omitted).
UniProt P26465: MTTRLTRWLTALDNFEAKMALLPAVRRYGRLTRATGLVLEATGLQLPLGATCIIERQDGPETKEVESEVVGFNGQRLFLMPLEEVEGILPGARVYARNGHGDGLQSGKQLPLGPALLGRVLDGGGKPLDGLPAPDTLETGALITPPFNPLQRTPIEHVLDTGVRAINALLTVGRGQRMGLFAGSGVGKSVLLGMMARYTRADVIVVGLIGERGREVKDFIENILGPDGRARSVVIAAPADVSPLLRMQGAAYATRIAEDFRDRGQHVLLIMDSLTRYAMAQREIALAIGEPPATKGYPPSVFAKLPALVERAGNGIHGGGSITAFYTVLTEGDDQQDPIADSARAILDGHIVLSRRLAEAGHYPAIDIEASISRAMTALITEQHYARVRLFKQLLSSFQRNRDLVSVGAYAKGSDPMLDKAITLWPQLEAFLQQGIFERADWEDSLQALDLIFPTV

Target: T1, FliH (Salmonella) (UniProt P15934)
T1 sequence: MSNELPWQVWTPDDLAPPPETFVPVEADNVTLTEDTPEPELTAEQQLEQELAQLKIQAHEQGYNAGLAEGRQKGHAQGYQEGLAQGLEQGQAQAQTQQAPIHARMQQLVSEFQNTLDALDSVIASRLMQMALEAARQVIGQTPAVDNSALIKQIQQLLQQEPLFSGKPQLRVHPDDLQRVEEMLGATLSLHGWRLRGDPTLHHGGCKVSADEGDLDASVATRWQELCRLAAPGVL
Test: co-purification (Ni affinity, then SEC); cells expressing the FliH2/FliI complex lysed in 50 mM Tris-HCl pH 8.0, 500 mM NaCl; HisTrap HP or Ni-NTA agarose, imidazole elution; His tag retained; Superdex 200 in 20 mM Tris-HCl pH 7.5, 125 mM KCl

Molecule: FliI (from UniProt P26465 1-456) (enzyme)
- binding: binds

B1: FliH (protein, UniProt P15934 1-235)
chain: T1 sequence
- binding: binds
